Results are given in words; binding and its absence hold for the method and conditions named. Binding seen in cells or lysates may run through a third protein. A yes stands for co-enrichment or nearness to the bait. Other partners may have been found. Blank lines part the entries; values can stand above or below the molecule they belong to.
Target: EGFP–STrEP-paxillin (PXN) (human) (UniProt P49023)
Test: affinity purification with mass spectrometry; Strep-Tactin sepharose beads added to the lysate of HEK293 cells stably expressing tagged paxillin or tagged EGFP (control), 2 h; lysis buffer 20 mM HEPES-KOH pH 7.40, 5 mM CH3COOK, 150 mM NaCl, 0.5 mM MgCl2, 0.5 mM DTT, 0.5% Triton X-100; eluted with 50 mM Tris-HCl pH 8.00, 2.5 mM desthiobiotin; trypsin digest, LC-MS-MS

The chains behind the UniProt entries cited, without tags or fusion partners. Where a name states a change or a piece, a line headed by the entry shows the natural chain unless it says otherwise.
UniProt P49023: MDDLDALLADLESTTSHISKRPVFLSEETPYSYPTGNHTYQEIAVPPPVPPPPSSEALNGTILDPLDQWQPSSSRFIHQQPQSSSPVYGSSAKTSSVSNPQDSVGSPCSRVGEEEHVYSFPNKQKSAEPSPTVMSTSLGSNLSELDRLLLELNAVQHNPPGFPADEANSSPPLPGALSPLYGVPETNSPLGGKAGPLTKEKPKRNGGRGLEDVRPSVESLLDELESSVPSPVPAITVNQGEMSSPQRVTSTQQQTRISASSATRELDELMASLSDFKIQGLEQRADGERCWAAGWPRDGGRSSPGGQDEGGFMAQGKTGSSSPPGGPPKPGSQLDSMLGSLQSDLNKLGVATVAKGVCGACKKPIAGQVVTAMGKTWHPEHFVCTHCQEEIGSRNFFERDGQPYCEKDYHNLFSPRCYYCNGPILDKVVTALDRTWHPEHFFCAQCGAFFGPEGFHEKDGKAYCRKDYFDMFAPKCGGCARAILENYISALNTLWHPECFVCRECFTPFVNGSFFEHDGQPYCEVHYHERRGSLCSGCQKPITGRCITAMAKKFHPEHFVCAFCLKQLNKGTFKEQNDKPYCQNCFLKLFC
UniProt Q96RN5: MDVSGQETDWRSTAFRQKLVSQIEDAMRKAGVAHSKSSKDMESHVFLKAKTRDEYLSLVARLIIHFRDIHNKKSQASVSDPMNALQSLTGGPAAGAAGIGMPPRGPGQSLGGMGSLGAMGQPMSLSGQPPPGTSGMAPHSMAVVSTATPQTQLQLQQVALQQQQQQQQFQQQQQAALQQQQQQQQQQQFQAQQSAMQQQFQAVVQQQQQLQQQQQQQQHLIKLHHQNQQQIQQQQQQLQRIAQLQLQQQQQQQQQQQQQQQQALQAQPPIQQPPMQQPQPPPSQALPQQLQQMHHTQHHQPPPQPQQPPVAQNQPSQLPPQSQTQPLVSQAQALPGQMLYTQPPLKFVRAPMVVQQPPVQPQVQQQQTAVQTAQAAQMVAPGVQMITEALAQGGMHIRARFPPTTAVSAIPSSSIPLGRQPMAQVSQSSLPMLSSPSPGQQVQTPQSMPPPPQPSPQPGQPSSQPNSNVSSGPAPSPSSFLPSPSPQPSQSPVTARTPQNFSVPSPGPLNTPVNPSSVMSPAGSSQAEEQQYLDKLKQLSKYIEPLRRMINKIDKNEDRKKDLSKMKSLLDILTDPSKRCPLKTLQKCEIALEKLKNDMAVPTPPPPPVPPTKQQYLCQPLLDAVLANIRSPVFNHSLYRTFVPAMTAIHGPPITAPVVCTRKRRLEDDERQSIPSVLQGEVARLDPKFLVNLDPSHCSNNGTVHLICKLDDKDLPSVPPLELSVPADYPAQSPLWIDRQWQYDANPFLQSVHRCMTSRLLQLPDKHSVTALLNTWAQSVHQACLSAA
UniProt Q9UQE7: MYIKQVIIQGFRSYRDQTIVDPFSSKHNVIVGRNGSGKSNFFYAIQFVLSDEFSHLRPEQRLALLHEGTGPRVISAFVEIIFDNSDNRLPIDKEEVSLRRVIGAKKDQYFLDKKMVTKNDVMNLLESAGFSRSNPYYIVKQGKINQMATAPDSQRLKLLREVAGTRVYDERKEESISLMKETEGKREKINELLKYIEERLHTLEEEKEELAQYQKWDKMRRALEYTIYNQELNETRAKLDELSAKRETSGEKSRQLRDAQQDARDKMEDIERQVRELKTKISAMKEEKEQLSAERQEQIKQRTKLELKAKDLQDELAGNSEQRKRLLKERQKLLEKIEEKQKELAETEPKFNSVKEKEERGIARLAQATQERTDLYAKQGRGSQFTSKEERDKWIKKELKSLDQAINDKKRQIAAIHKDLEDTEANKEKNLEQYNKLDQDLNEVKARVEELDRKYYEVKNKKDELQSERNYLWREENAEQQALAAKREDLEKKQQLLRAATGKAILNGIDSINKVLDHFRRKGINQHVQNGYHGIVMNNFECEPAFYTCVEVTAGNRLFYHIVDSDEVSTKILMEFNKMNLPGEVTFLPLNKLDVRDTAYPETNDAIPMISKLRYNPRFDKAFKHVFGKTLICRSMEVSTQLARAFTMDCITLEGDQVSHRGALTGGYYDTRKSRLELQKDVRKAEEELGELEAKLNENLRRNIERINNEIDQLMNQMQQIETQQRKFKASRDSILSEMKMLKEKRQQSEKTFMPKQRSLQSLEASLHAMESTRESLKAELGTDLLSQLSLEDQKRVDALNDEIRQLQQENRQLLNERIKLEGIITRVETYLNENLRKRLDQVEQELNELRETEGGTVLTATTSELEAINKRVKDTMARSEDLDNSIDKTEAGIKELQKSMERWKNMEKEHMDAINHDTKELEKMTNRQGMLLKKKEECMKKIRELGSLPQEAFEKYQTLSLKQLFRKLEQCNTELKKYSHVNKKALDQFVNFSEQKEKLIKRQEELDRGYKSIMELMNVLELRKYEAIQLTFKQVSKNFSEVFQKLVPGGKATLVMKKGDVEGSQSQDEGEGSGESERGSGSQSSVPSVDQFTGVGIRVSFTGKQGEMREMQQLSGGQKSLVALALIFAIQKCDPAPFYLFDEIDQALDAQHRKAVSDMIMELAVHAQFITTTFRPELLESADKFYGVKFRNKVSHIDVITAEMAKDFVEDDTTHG

Molecule: MED15 (from UniProt Q96RN5 1-788)
binding: binds

B2: mediator subunit 23 (MED23) (protein, UniProt Q9ULK4 1-1368)
chain: METQLQSIFEEVVKTEVIEEAFPGMFMDTPEDEKTKLISCLGAFRQFWGGLSQESHEQCIQWIVKFIHGQHSPKRISFLYDCLAMAVETGLLPPRLVCESLINSDTLEWERTQLWALTFKLVRKIIGGVDYKGVRDLLKVILEKILTIPNTVSSAVVQQLLAAREVIAYILERNACLLPAYFAVTEIRKLYPEGKLPHWLLGNLVSDFVDTFRPTARINSICGRCSLLPVVNNSGAICNSWKLDPATLRFPLKGLLPYDKDLFEPQTALLRYVLEQPYSRDMVCNMLGLNKQHKQRCPVLEDQLVDLVVYAMERSETEEKFDDGGTSQLLWQHLSSQLIFFVLFQFASFPHMVLSLHQKLAGRGLIKGRDHLMWVLLQFISGSIQKNALADFLPVMKLFDLLYPEKEYIPVPDINKPQSTHAFAMTCIWIHLNRKAQNDNSKLQIPIPHSLRLHHEFLQQSLRNKSLQMNDYKIALLCNAYSTNSECFTLPMGALVETIYGNGIMRIPLPGTNCMASGSITPLPMNLLDSLTVHAKMSLIHSIATRVIKLAHAKSSVALAPALVETYSRLLVYMEIESLGIKGFISQLLPTVFKSHAWGILHTLLEMFSYRMHHIQPHYRVQLLSHLHTLAAVAQTNQNQLHLCVESTALRLITALGSSEVQPQFTRFLSDPKTVLSAESEELNRALILTLARATHVTDFFTGSDSIQGTWCKDILQTIMSFTPHNWASHTLSCFPGPLQAFFKQNNVPQESRFNLKKNVEEEYRKWKSMSNENDIITHFSMQGSPPLFLCLLWKMLLETDHINQIGYRVLERIGARALVAHVRTFADFLVYEFSTSAGGQQLNKCIEILNDMVWKYNIVTLDRLILCLAMRSHEGNEAQVCYFIIQLLLLKPNDFRNRVSDFVKENSPEHWLQNDWHTKHMNYHKKYPEKLYFEGLAEQVDPPVQIQSPYLPIYFGNVCLRFLPVFDIVIHRFLELLPVSKSLETLLDHLGGLYKFHDRPVTYLYNTLHYYEMHLRDRAFLKRKLVHAIIGSLKDNRPQGWCLSDTYLKCAMNAREENPWVPDDTYYCRLIGRLVDTMAGKSPGPFPNCDWRFNEFPNPAAHALHVTCVELMALAVSGKEVGNALLNVVLKSQPLVPRENITAWMNAIGLIITALPEPYWIVLHDRIVSVISSPSLTSETEWVGYPFRLFDFTACHQSYSEMSCSYTLALAHAVWHHSSIGQLSLIPKFLTEVLLPIVKTEFQLLYVYHLVGPFLQRFQQERTRCMIEIGVAFYDMLLNVDQCSTHLNYMDPICDFLYHMKYMFTGDSVKEQVEKIICNLKPALKLRLRFITHISKMEPAAVPPQAMNSGSPAPQSNQVPVSLPVTQ
binding: binds

B3: MED24 (protein, UniProt O75448 1-989)
chain: MKVVNLKQAILQAWKERWSDYQWAINMKKFFPKGATWDILNLADALLEQAMIGPSPNPLILSYLKYAISSQMVSYSSVLTAISKFDDFSRDLCVQALLDIMDMFCDRLSCHGKAEECIGLCRALLSALHWLLRCTAASAERLREGLEAGTPAAGEKQLAMCLQRLEKTLSSTKNRALLHIAKLEEASSWTAIEHSLLKLGEILANLSNPQLRSQAEQCGTLIRSIPTMLSVHAEQMHKTGFPTVHAVILLEGTMNLTGETQSLVEQLTMVKRMQHIPTPLFVLEIWKACFVGLIESPEGTEELKWTAFTFLKIPQVLVKLKKYSHGDKDFTEDVNCAFEFLLKLTPLLDKADQRCNCDCTNFLLQECGKQGLLSEASVNNLMAKRKADREHAPQQKSGENANIQPNIQLILRAEPTVTNILKTMDADHSKSPEGLLGVLGHMLSGKSLDLLLAAAAATGKLKSFARKFINLNEFTTYGSEESTKPASVRALLFDISFLMLCHVAQTYGSEVILSESRTGAEVPFFETWMQTCMPEEGKILNPDHPCFRPDSTKVESLVALLNNSSEMKLVQMKWHEACLSISAAILEILNAWENGVLAFESIQKITDNIKGKVCSLAVCAVAWLVAHVRMLGLDEREKSLQMIRQLAGPLFSENTLQFYNERVVIMNSILERMCADVLQQTATQIKFPSTGVDTMPYWNLLPPKRPIKEVLTDIFAKVLEKGWVDSRSIHIFDTLLHMGGVYWFCNNLIKELLKETRKEHTLRAVELLYSIFCLDMQQVTLVLLGHILPGLLTDSSKWHSLMDPPGTALAKLAVWCALSSYSSHKGQASTRQKKRHREDIEDYISLFPLDDVQPSKLMRLLSSNEDDANILSSPTDRSMSSSLSASQLHTVNMRDPLNRVLANLFLLISSILGSRTAGPHTQFVQWFMEECVDCLEQGGRGSVLQFMPFTTVSELVKVSAMSSPKVVLAITDLSLPLGRQVAAKAIAAL
binding: binds

More lines, now with the values ahead:

binding: binds
Molecule: structural maintenance of chromosomes 3 protein (SMC3) (from UniProt Q9UQE7 1-1217)

binding: binds
B1: structural maintenance of chromosomes 1A protein (SMC1A) (protein, UniProt Q14683 1-1233)
chain: MGFLKLIEIENFKSYKGRQIIGPFQRFTAIIGPNGSGKSNLMDAISFVLGEKTSNLRVKTLRDLIHGAPVGKPAANRAFVSMVYSEEGAEDRTFARVIVGGSSEYKINNKVVQLHEYSEELEKLGILIKARNFLVFQGAVESIAMKNPKERTALFEEISRSGELAQEYDKRKKEMVKAEEDTQFNYHRKKNIAAERKEAKQEKEEADRYQRLKDEVVRAQVQLQLFKLYHNEVEIEKLNKELASKNKEIEKDKKRMDKVEDELKEKKKELGKMMREQQQIEKEIKEKDSELNQKRPQYIKAKENTSHKIKKLEAAKKSLQNAQKHYKKRKGDMDELEKEMLSVEKARQEFEERMEEESQSQGRDLTLEENQVKKYHRLKEEASKRAATLAQELEKFNRDQKADQDRLDLEERKKVETEAKIKQKLREIEENQKRIEKLEEYITTSKQSLEEQKKLEGELTEEVEMAKRRIDEINKELNQVMEQLGDARIDRQESSRQQRKAEIMESIKRLYPGSVYGRLIDLCQPTQKKYQIAVTKVLGKNMDAIIVDSEKTGRDCIQYIKEQRGEPETFLPLDYLEVKPTDEKLRELKGAKLVIDVIRYEPPHIKKALQYACGNALVCDNVEDARRIAFGGHQRHKTVALDGTLFQKSGVISGGASDLKAKARRWDEKAVDKLKEKKERLTEELKEQMKAKRKEAELRQVQSQAHGLQMRLKYSQSDLEQTKTRHLALNLQEKSKLESELANFGPRINDIKRIIQSREREMKDLKEKMNQVEDEVFEEFCREIGVRNIREFEEEKVKRQNEIAKKRLEFENQKTRLGIQLDFEKNQLKEDQDKVHMWEQTVKKDENEIEKLKKEEQRHMKIIDETMAQLQDLKNQHLAKKSEVNDKNHEMEEIRKKLGGANKEMTHLQKEVTAIETKLEQKRSDRHNLLQACKMQDIKLPLSKGTMDDISQEEGSSQGEDSVSGSQRISSIYAREALIEIDYGDLCEDLKDAQAEEEIKQEMNTLQQKLNEQQSVLQRIAAPNMKAMEKLESVRDKFQETSDEFEAARKRAKKAKQAFEQIKKERFDRFNACFESVATNIDEIYKALSRNSSAQAFLGPENPEEPYLDGINYNCVAPGKRFRPMDNLSGGEKTVAALALLFAIHSYKPAPFFVLDEIDAALDNTNIGKVANYIKEQSTCNFQAIVISLKEEFYTKAESLIGVYPEQGDCVISKVLTFDLTKYPDANPNPNEQ

Source: publication PMC4541046
